Earlier results in patent US20230404921A1, “LYOTROPIC LIQUID CRYSTALLINE PHASE PARTICLE” (priority 2020, published 2023).
At least one compound was matched to its structure with a doubt left.

Assays:
Mycobacterium smegmatis = conditions: cited from earlier work
[1] = test system: Mycobacterium tuberculosis H37Ra; conditions: cited from earlier work

CO[C@H]1/C=C/O[C@@]2(C)Oc3c(C)c(O)c4c(O)c(c(/C=N/N5CCN(C)CC5)c(O)c4c3C2=O)NC(=O)/C(C)=C\C=C\[C@H](C)[C@H](O)[C@@H](C)[C@@H](O)[C@@H](C)[C@H](OC(C)=O)[C@@H]1C [rifampicin, Rifampicin]
reported value for cell death (Mycobacterium smegmatis): 20 to 24 h | reported MIC value (Mycobacterium smegmatis; intracellular bacteria): 4 to 5 µg/mL | reported value for cell death at MIC [1]: 8 to 9 days | reported MIC value ([1]; intracellular bacteria): 0.04 to 0.05 µg/mL
